In PubChem BioAssay AID662 (National Center for Advancing Translational Sciences (NCATS), 2007):
The list shows a part of the results. Further columns of the screen follow, without active or inactive calls. Most of these compounds were active or inconclusive in the main read-out, so they are no random draw. The note in brackets gives the kind of curve behind each potency; many fits are weak.

Assay: Cell signaling CRE-BLA (Fsk stim)
Conditions: CHO CRE-bla reporter (cAMP response element driving beta-lactamase), forskolin EC10, beta-lactamase ratio; measured here: 460 nm blue channel
Procedure, shortened: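 Titrated compounds plus EC10 NKH 477 on CHO CRE-bla cells, 3 h, 37 °C. CCF4, 2 h RT. Ratio 460/530 nm → AC50.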

| Compound | AC50 |
| --- | --- |
| Cn1c(CCN2CCCCC2)nc2cc(NS(=O)(=O)c3ccc(Cl)cc3)ccc21 | 15.8 µM [falling, partial curve] |
| O=C(COc1ccc(-n2cnnn2)cc1)NCCc1ccc(F)cc1 | 0.126 µM [rising, full curve, poor fit] |
| CC(C)CCNC(=O)CCNS(=O)(=O)c1ccc(Cl)cc1 | 3.98 µM [falling, full curve] |
| CC(C)N(Cc1nc(-c2ccc(Cl)cc2)no1)C(=O)C12CC3CC(CC(C3)C1)C2 | 25.1 µM [falling, single point] |
| COCC1C2CC[C@H]3C(OCc4ccc(F)cc4C(F)(F)F)OC[C@]4(C)[C@H]3C2=C(CN4C(=O)OC(C)(C)C)[C@H](C)C1COC (stereo partly drawn) | 10 µM [rising, partial curve] |
| O=C(OCc1ccccc1)C1CCCN1C(=O)c1cccs1 (stereo not drawn) | 3.98 µM [falling, partial curve] |
| CS(=O)(=O)c1nc(-c2cccs2)cc(C(F)(F)F)n1 | 0.316 µM [falling, full curve] |
| Cc1ccc(C)c(-c2nc3cc(N)ccc3o2)c1 | 25.1 µM [rising, single point] |
| O=C(Nc1cccs1)Nc1ccccc1Cl | 0.794 µM [falling, full curve] |
| O=C(COC(=O)c1ccccn1)Nc1ncc(C(F)(F)F)cc1Cl | 0.00398 µM [falling, full curve, poor fit] |
| O=C(c1ccccc1)c1nnc(-c2ccncc2)o1 | 0.00398 µM [rising, full curve, poor fit] |
| N=c1c2c(-c3ccccc3)c(-c3ccccc3)n(Cc3ccco3)c2ncn1Cc1ccco1 | 25.1 µM [falling, single point] |
| CCn1c(=O)c(-c2ccccc2)c(O)c2ccccc21 | 10 µM [falling, single point] |
| O=C(O)C1C2CCC(C2)C1C(=O)NCc1ccccn1 (stereo not drawn) | 0.1 µM [falling, full curve] |
| Cc1ccccc1Cn1cnc2c(cnn2C(C)(C)C)c1=O | 20 µM [rising, single point] |
| COc1ccccc1-c1nnc2n1N=C(C(C)(C)C)CS2 | 25.1 µM [rising, single point] |
| Cn1nnnc1SCC(=O)Nc1c(Cl)cccc1Cl | 0.631 µM [falling, full curve] |
| Cc1ccc(S(=O)(=O)C2(C(=O)Nc3ccc(F)cc3)CC2)cc1 | 0.0631 µM [falling, full curve] |
| Cc1cc(C)n(Cc2ccc(C(=O)O)o2)n1 | 20 µM [falling, single point] |
| CCOC(=O)C1=C(C)NC(C)=C(C(=O)OC)[C@H]1c1cccc(Cl)c1Cl | 7.94 µM [rising, partial curve] |
| O=C(NCc1ccco1)c1cc(-c2ccccn2)nc2ccccc12 | 12.6 µM [falling, single point] |
| CCC(c1nnnn1Cc1ccco1)N(CCc1ccccc1)Cc1cc2ccc(OC)cc2[nH]c1=O (stereo not drawn) | 10 µM [rising, single point] |
| CCCCSc1nnc([C@H](CC(C)C)NC(=O)OC(C)(C)C)o1 | 25.1 µM [rising, single point] |

| Compound | AC50 |
| --- | --- |
| CSc1nnc2n(-c3ccccc3)c(=O)c3c4c(sc3n12)CCC4 | 2.51 µM [rising, full curve] |
| Cc1cc(C)c(C#N)c(N2CCN(Cc3ccc4c(c3)OCO4)CC2)n1 | 10 µM [rising, partial curve] |
| Cc1cccc(N2CCN(C(=O)C3CCCN(S(=O)(=O)c4cccc5cccnc45)C3)CC2)c1C (stereo not drawn) | 5.01 µM [falling, single point] |
| Fc1ccccc1CSc1nnc(-c2cnccn2)n1Cc1ccco1 | 3.16 µM [rising, partial curve] |
| CCNc1nc(NC(C)C)nc(Oc2ccc(OCCOc3ccc(C)cc3)nn2)n1 | 0.316 µM [rising, partial curve] |
| CN(Cc1ccco1)c1ncnc2ccc(-c3ccc4c(c3)OCO4)cc12 | 3.16 µM [rising, partial curve] |
| CCCCNC(=O)c1c[nH]c2ccc(S(=O)(=O)Nc3ccc(OCC)cc3)cc2c1=O | 25.1 µM [falling, single point] |
| CCCc1cc(Nc2cccc(OCC)c2)n2ncnc2n1 | 10 µM [rising, partial curve] |
| Cc1cc(N2CCN(C(c3ccccc3)c3ccc(Cl)cc3)CC2)n2ncnc2n1 (stereo not drawn) | 25.1 µM [falling, single point] |
| COc1cccc(-c2nc(CS(=O)CC(=O)NCCCOC(C)C)c(C)o2)c1 (stereo not drawn) | 0.00794 µM [falling, full curve, poor fit] |
| Cc1cccc2cc(CN(CCCO)C(=O)Nc3ccc(Cl)cc3)c(=O)[nH]c12 | 0.501 µM [falling, full curve, poor fit] |
| COc1ccc(-c2nc(CSCC(=O)N3CCC(C(N)=O)CC3)c(C)o2)cc1OC | 15.8 µM [rising, single point] |
| CCCNC(=O)c1cc(-c2ccc(OC)cc2)on1 | 0.0398 µM [falling, full curve, poor fit] |
| N#Cc1c(N)oc(-c2ccc3c(c2)OCO3)c1-c1ccc2c(c1)OCO2 | 5.01 µM [rising, partial curve] |
| CCN(CC)CCCN(Cc1cc2cc3c(cc2[nH]c1=O)OCCO3)C(=O)Nc1ccccc1 | 20 µM [rising, single point] |
| O=C(NCCc1ccccc1)C1CCCN(S(=O)(=O)c2cccc3nsnc23)C1 (stereo not drawn) | 15.8 µM [rising, single point] |
| FC(F)Oc1ccc(-c2csc(Cc3nnc4n3CCCCC4)n2)cc1 | 25.1 µM [rising, single point] |
| C=CCn1c(=O)c2c(nc3n2CCS3)n(C)c1=O | 10 µM [rising, partial curve] |
| CN1CCN(c2ncc3ncc(=O)n(CCc4ccccc4)c3n2)CC1 | 12.6 µM [rising, partial curve] |
| COc1cc(NC(=O)c2cc(-n3cnnc3)ccc2Cl)cc(OC)c1 | 12.6 µM [rising, single point] |
| CCc1nc(SCC(=O)NCc2ccco2)c2c3c(sc2n1)CCCC3 | 3.16 µM [rising, single point] |
| O=C(CSc1nc2c(cnn2-c2ccccc2)c(=O)[nH]1)c1ccc(Cl)cc1 | 0.126 µM [rising, full curve, poor fit] |
| CCc1ccc(NC(=O)c2ccc3c(c2)C(=O)N(Cc2ccco2)C3=O)cc1 | 10 µM [falling, single point] |

| Compound | AC50 |
| --- | --- |
| COc1ccccc1NC(=O)CSc1nnc(-c2ccccn2)n1Cc1ccco1 | 10 µM [rising, partial curve] |
| CCC/C=C(\CCC)C(NS(=O)(=O)c1ccccc1)c1ccc(C(F)(F)F)cc1 (stereo not drawn) | 2.51 µM [rising, full curve] |
| COc1ccc(-c2nc3cnc(N4CCOCC4)nc3n(Cc3cccc(OC)c3)c2=O)cc1 | 5.01 µM [rising, partial curve] |
| O=C(CCn1c(=O)c2sccc2n(Cc2cc(=O)n3ccccc3n2)c1=O)NCc1ccco1 | 0.0251 µM [falling, partial curve] |
| O=C(NCCOc1ccc(Cl)cc1)C1CC(=O)N(c2ccc(F)cc2)C1 (stereo not drawn) | 0.316 µM [falling, full curve] |
| Cc1cccc(N2CCN(C(=O)C3CCN(c4nnc(-n5cccc5)s4)CC3)CC2C)c1 (stereo not drawn) | 6.31 µM [falling, partial curve] |
| COc1ccccc1NC(=O)CC1Nc2ccccc2NC1=O (stereo not drawn) | 10 µM [rising, partial curve] |
| CCOC(=O)NC(CC(=O)O)c1ccc(OCC)cc1 (stereo not drawn) | 1.58 µM [rising, partial curve] |
| CCOCCCNS(=O)(=O)c1ccc2c(c1)CCN2C(=O)CC | 7.94 µM [rising, single point] |
| O=C(CN1CCOCC1)Nc1cccc(Br)c1 | 15.8 µM [falling, partial curve] |
| Clc1ccccc1-c1ccc2ncnc(N3CCNCC3)c2c1 | 10 µM [rising, partial curve] |
| CC1(C(=O)Nc2nccs2)Cc2ccccc2C(=O)O1 (stereo not drawn) | 12.6 µM [falling, partial curve] |
| Cc1nn(CC(=O)Nc2ccc(C(=O)N3CCCCC3)cc2)c(=O)c2ccccc12 | 5.01 µM [rising, single point] |
| Cc1nc2ccc(NC(=O)C3CCN(S(=O)(=O)c4cccs4)CC3)cc2s1 | 3.16 µM [falling, full curve] |
| c1csc(Cc2nc3ccccc3[nH]2)c1 | 0.0501 µM [falling, full curve] |
| COc1ccc(O)c(-c2[nH]ncc2C(=O)c2ccccc2C)c1 | 5.01 µM [falling, partial curve] |
| O=Nc1ccc(NO)cc1 | 25.1 µM [falling, partial curve, poor fit] |
| Cc1cc2ncn(C3CC(=O)N(Cc4ccccc4)C3=O)c2cc1C (stereo not drawn) | 15.8 µM [rising, partial curve, poor fit] |
| Cc1cc(C(=O)CSc2nnc(Cc3ccccc3)o2)c(C)n1Cc1ccc2c(c1)OCO2 | 31.6 µM [falling, single point] |
| c1csc(-c2nn3c(-c4ccncc4)nnc3s2)c1 | 10 µM [rising, single point] |
| CCc1cc2c(CN3CCN(CCO)CC3)cc(=O)oc2cc1O | 10 µM [rising, partial curve] |
| CN(C)c1ccc(C2N(C(=O)N3CCOCC3)CCN2S(=O)(=O)c2ccccc2)cc1 (stereo not drawn) | 0.251 µM [rising, partial curve, poor fit] |

A draw from above in order of SMILES length, low to high.

| Compound | AC50 |
| --- | --- |
| CC1(C(=O)Nc2nccs2)Cc2ccccc2C(=O)O1 (stereo not drawn) | 12.6 µM [falling, partial curve] |
| Cc1nn(CC(=O)Nc2ccc(C(=O)N3CCCCC3)cc2)c(=O)c2ccccc12 | 5.01 µM [rising, single point] |
| Cc1cccc(N2CCN(C(=O)C3CCN(c4nnc(-n5cccc5)s4)CC3)CC2C)c1 (stereo not drawn) | 6.31 µM [falling, partial curve] |
